# Measured data: PubChem BioAssay AID1259424 (University of Nebraska Medical Center, 2018)
# Aim: 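Seek colon cancer survival genes behaving like KSR1, using a six-gene signature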 (primary screen)
# Cells: human HCT116 colon cancer cells
# Knock-down reagent: siRNA pool against human genes, 50 nM
# Measurement: 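Six signature mRNAs by branched-DNA multiplex assay, scaled to two housekeeping genes and non-targeting median, log2; matched to mean KSR1 knockdown profile by Pearson correlation and euclidean distance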
# Direction: mean correlation with KSR1 profile and KSR1 correlation: higher = expression change more like KSR1 knockdown; mean distance from KSR1 profile: higher = expression change less like KSR1 knockdown
# The deposit covers about 14,000 reagents; this is a random part of them. 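Higher correlation or smaller distance means closer resemblance to KSR1 loss; control wells, including KSR1 knockdowns, recur on many plates.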 No sequences are given here. Not given: the time to read-out.
gene symbol,mean correlation with KSR1 profile,mean distance from KSR1 profile,"KSR1 correlation, replicate 1","KSR1 correlation, replicate 2","KSR1 correlation, replicate 3"
FASTKD2,-0.15,3.66,-0.00272,-0.184,-0.153
LRRC8B,-0.711,2.3,-0.772,-0.325,-0.794
LDB3,-0.829,1.85,-0.651,-0.847,-0.679
DERA,0.531,3.41,0.256,0.421,0.521
MRPS24,0.203,1.69,-0.0898,0.326,0.198
TRIM54,-0.595,1.63,-0.701,-0.522,-0.559
CD93,0.384,1.37,0.572,0.286,0.387
GABRB1,0.188,2.62,0.335,0.153,-0.0302
ATP1A1,-0.0267,2.88,-0.13,0.0022,-0.0568
IRX4,0.171,1.91,0.723,0.179,-0.0211
MLANA,-0.357,2.36,-0.34,-0.47,-0.226
ANXA9,0.316,2.07,0.31,0.292,0.436
SEPTIN8,0.19,1.53,0.047,0.36,0.0391
GRIN2C,-0.0766,1.33,-0.496,-0.329,-0.0411
QSER1,-0.55,2.16,-0.436,-0.719,-0.575
EBF1,0.197,1.56,0.0254,0.37,0.00886
ACOT13,0.162,1.71,0.134,0.0861,0.306
BAZ1B,0.309,3.34,-0.0357,0.206,0.495
SIRPG,-0.299,1.87,-0.341,-0.16,-0.083
CCN3,0.539,1.26,0.704,0.275,0.49
IFNG,0.708,0.759,0.506,0.782,0.747
CD27,-0.153,1.5,0.00786,-0.00121,-0.492
PAH,-0.567,1.66,-0.798,-0.429,-0.429
NDUFV3,-0.833,1.96,-0.349,-0.876,-0.581
CST7,-0.559,2.85,-0.583,-0.716,-0.563
PPEF1,0.49,1.87,0.223,0.379,0.597
PDXP,-0.0118,3.87,-0.0457,0.0665,-0.228
PHEX,-0.13,1.45,-0.526,0.0687,0.0107
TMBIM4,0.00939,3.35,0.0504,0.133,0.0896
AKR7A3,-0.323,4.11,-0.0283,-0.621,0.125
HAS2,0.79,0.815,0.639,0.922,0.672
ACOX3,0.107,1.14,0.325,0.275,-0.00828
RBP3,0.106,2.79,0.0331,0.135,0.0784
KANSL3,-0.764,3.08,-0.669,-0.676,-0.605
